A short description of the assay: qHTS Assay for Modulators of Lamin A Splicing. Particulars: HeLa LMNA splicing GFP/RFP minigene ratio, 48 h. Summed up: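 Read-out is the ratio of GFP to DsRed2 object intensity, acquired by 488 nm laser-scanning cytometry on HeLa lamin A-EGFP minigene reporter cells. Compound incubation 48 hrs at 37 °C in Opti-MEM with 2% FBS; DMSO 0.5% final.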
For orientation: In qHTS, concentration-response curves come from the screen itself.

Where [1] appears, read: measured here: GFP splicing reporter channel.
Setting [2] is: measured here: RFP viability control channel.

One may read the AC50 as the concentration giving half of the maximal activity seen.

The list shows a part of the results. These are further read-outs of the screen, such as a control signal, another cell line or another target. No call is given for them. The list favours compounds with an active or inconclusive main result. The note in brackets gives the kind of curve behind each potency; many fits are weak.

Turning to `CCOc1ccc(NC(=S)Nc2ccccc2C2(C)CC2)cc1`, the half-maximal activity concentration (AC50) was 1.26 µM [falling, full curve, poor fit] under setting [1] and 1.12 µM [falling, full curve, poor fit] under setting [2].
With `CCOc1cccc(C(=O)Nc2nc(-c3ccc(S(=O)(=O)N4CCOCC4)cc3)cs2)c1`, the AC50 under setting [1] is 7.94 µM [rising, partial curve, poor fit].
Turning to `O=[N+]([O-])c1ccc(Oc2ccc(F)cc2)c2ccncc12`, the AC50 by setting is: under setting [1], 15.8 µM [rising, single point]; under setting [2], 31.6 µM [rising, single point].
`COc1ccc(Cc2nc(N)nc(N)n2)cc1`: the concentration at half-maximal activity (AC50) under setting [1] is 12.6 µM [rising, single point].
For the compound `N#C/C(=N\Nc1ccc(S(=O)(=O)N2CCCCC2)cc1)C(N)=S`, under setting [2], the half-maximal activity concentration (AC50) is 14.1 µM [rising, partial curve].
As for `COc1cccc(C2CCCN2Cc2nc(-c3sccc3C)oc2C)c1` (stereo not given), the half-maximal activity concentration (AC50) under setting [1] was 17.8 µM [falling, single point].
Still for that read-out and setting: as for `Cc1nc(CSc2nsc(C)c2C#N)cs1`, the figure is 22.4 µM [falling, partial curve]; as for `CC1(C)CC(NC(=O)c2sc3cc(Cl)ccc3c2Cl)CC(C)(C)N1`, 0.00631 µM [falling, full curve].
As for `Nc1nc2ccc(S(=O)(=O)c3ccc4nc(N)sc4c3)cc2s1`, the half-maximal activity concentration (AC50) under setting [2] is 17.8 µM [rising, single point].
Same read-out and setting: then `CCCN(CCC)S(=O)(=O)c1ccc(C(=O)Nc2nnc(-c3cc(OC)cc(OC)c3)o2)cc1`, with 0.126 µM [rising, full curve].
Still for that read-out and setting: as for `OC(CCCN1CCCCC1)(c1ccccc1)c1ccccc1`, the figure is 20 µM [rising, single point].
In the case of `CCCC(=O)c1ccc(N2CCN(C(=O)c3ccccc3Br)CC2)c(F)c1`, the half-maximal activity concentration (AC50) reads like this: under setting [1], 35.5 µM [rising, single point]; under setting [2], 25.1 µM [rising, single point].
With `COC(=O)C1=C(C)N(C)C(=O)NC1c1cc(Cl)cc(Cl)c1OC` (stereo not given), the AC50 under setting [1] is 7.08 µM [rising, full curve, poor fit].
Consider `Nc1ccc(C(=O)NCc2ccccc2)cc1`, for which the concentration at half-maximal activity (AC50) under setting [2] is 0.355 µM [rising, full curve, poor fit].
For `CCN(CC)CCOC(=O)C(c1ccccc1)c1ccccc1`, the AC50 reads like this: under setting [1], 0.398 µM [falling, full curve]; under setting [2], 0.562 µM [falling, full curve].
For the compound `Cc1ccccc1-n1nc2c(c1NC(=O)/C=C\c1ccc3c(c1)OCO3)CSC2`, the AC50 under setting [2] is 14.1 µM [rising, single point].
As to `COCCCNC(=O)c1nn(C)c2c1CS(=O)(=O)c1ccccc1-2`, the half-maximal activity concentration (AC50) is 0.0631 µM [falling, full curve, poor fit] under setting [1] and 0.0398 µM [falling, full curve] under setting [2].
Consider `COC(=O)c1ccc(COc2ccccc2/C=N/NS(=O)(=O)c2ccc(C)cc2)cc1`, for which the half-maximal activity concentration (AC50) reads like this: under setting [1], 11.2 µM [falling, partial curve]; under setting [2], 11.2 µM [falling, partial curve].
For `CC(=O)NC1(C(Cl)(Cl)Cl)Oc2ccccc2O1`, the concentration at half-maximal activity (AC50) is 17.8 µM [falling, single point] under setting [1] and 25.1 µM [falling, single point] under setting [2].
For the compound `CCN(CC)S(=O)(=O)c1ccc(C(=O)NC(C)(C)C)cc1`, the AC50 under setting [2] was 1.26 µM [falling, full curve, poor fit].
Turning to `COc1cc([N+](=O)[O-])c(C(=O)N2CCOCC2)c([N+](=O)[O-])c1`, the concentration at half-maximal activity (AC50) under setting [1] was 0.00891 µM [falling, full curve, poor fit].
As to `Cc1ccc(C(=O)/C=C\NCc2ccccc2)cc1`, the AC50 under setting [1] is 0.224 µM [rising, full curve, poor fit].
For `Cc1cc(C(F)(F)F)nc(SCCN2CCOCC2)c1C#N`, the AC50 under setting [1] was 0.00355 µM [rising, full curve] and the half-maximal activity concentration (AC50) under setting [2] was 0.00355 µM [rising, full curve, poor fit].
Turning to `COc1cccc(CNC(=O)CCC2CCCN(C(=O)c3cccc(Cl)c3)C2)c1` (stereo not given), the half-maximal activity concentration (AC50) reads like this: under setting [1], 5.62 µM [falling, full curve]; under setting [2], 6.31 µM [falling, full curve].
In the case of `O=C(Nc1ccc(N2CCOCC2)c(Cl)c1)c1cc(F)c(F)cc1Cl`, the AC50 under setting [2] was 31.6 µM [rising, single point].
Take `Cc1ccc(C(=O)Nc2cc3ccccc3oc2=O)cc1`: under setting [1], the AC50 is 0.01 µM [falling, full curve, poor fit].
Regarding `O=[N+]([O-])c1cccc(S(=O)(=O)Nc2nc3ccccc3nc2Nc2cccc(S(=O)(=O)N3CCCCC3)c2)c1`, under setting [2], the AC50 was 2.51 µM [rising, single point].
Same read-out and setting: as for `COc1ccc(Cc2nc(C(=O)Nc3ccc(Cl)cc3)cs2)cc1`, the figure is 14.1 µM [rising, partial curve]; as for `CN(Cc1ccco1)c1nc(-c2cccnc2)nc2ccccc12`, 35.5 µM [falling, single point].
Still for that read-out and setting: as for `CCCc1nc2ccccc2c(C(=O)OCc2nnc(-c3cc(OC)c(OC)c(OC)c3)o2)c1CC`, the figure is 22.4 µM [rising, single point].
Consider `COc1ccc(NC(=O)c2ccccc2-c2ccccc2)cc1`, for which the concentration at half-maximal activity (AC50) under setting [1] is 0.631 µM [falling, full curve].
For `Cc1cc(O)ccc1N=Cc1c(C(F)(F)F)[nH][nH]c1=O`, the concentration at half-maximal activity (AC50) was 35.5 µM [falling, single point] under setting [1] and 35.5 µM [falling, single point] under setting [2].
As to `CC1(CC(=O)N/N=C/c2cc(Br)c(O)cc2O)OCCO1`, the AC50 under setting [1] was 10 µM [falling, partial curve, poor fit].
For `CCOC(=O)c1sc(Nc2nc3c(OC)cccc3s2)nc1C`, under setting [2], the concentration at half-maximal activity (AC50) was 14.1 µM [rising, partial curve].
Still for that read-out and setting: then `COc1ccc(NCc2cccn2-c2nnc(N3CCOCC3)s2)cc1OC`, with 2.51 µM [falling, full curve, poor fit].
For `CCOC(=O)c1ccc(N=c2scc(C)n2CC)cc1`, the AC50 under setting [1] was 0.0355 µM [falling, full curve, poor fit].
As for `NC(=S)N/N=C/c1ccc(-c2cc(Cl)ccc2Cl)o1`, under setting [2], the concentration at half-maximal activity (AC50) is 8.91 µM [falling, partial curve, poor fit].
Consider `COc1ccc(Nc2nc(-c3sc(NC(C)=O)nc3C)cs2)cc1`, for which the concentration at half-maximal activity (AC50) under setting [2] is 17.8 µM [falling, partial curve, poor fit].
For `O=S(=O)(c1cccc2nsnc12)N1CCN(c2ccccc2F)CC1`, the half-maximal activity concentration (AC50) is, setting by setting: under setting [1], 35.5 µM [falling, single point]; under setting [2], 35.5 µM [falling, partial curve, poor fit].
Consider `O=C(Nc1nccs1)c1ccccn1`, for which the AC50 under setting [1] was 15.8 µM [rising, single point].
As for `CC(=O)Nc1ccc(S(=O)(=O)N2CCN(c3nc(NC4CCCC4)c4ccccc4n3)CC2)cc1`, the AC50 reads like this: under setting [1], 28.2 µM [falling, single point]; under setting [2], 35.5 µM [falling, single point].
As to `COc1ccc(S(=O)(=O)NCCc2sc(-c3cccnc3)nc2C)cc1OC`, the AC50 under setting [1] is 6.31 µM [falling, single point].
Take `CCOc1nc(Nc2ccc(OC)c(Cl)c2)nc(OCC)n1`: the AC50 is, setting by setting: under setting [1], 35.5 µM [rising, single point]; under setting [2], 31.6 µM [rising, single point].
Regarding `O=C(CSc1nc(-c2ccco2)cc(C(F)(F)F)n1)Nc1ccc(C(=O)N2CCCCC2)cc1`, the AC50 under setting [2] was 3.16 µM [rising, full curve].
As to `CN(CCCC(=O)Nc1ccncc1)S(=O)(=O)c1ccc(Cl)cc1`, the AC50 is 1.26 µM [rising, full curve] under setting [1] and 5.01 µM [rising, partial curve] under setting [2].
Take `O=C(O)c1ccc(-c2ccc(/C=C3\NC(=O)N(Cc4ccc(Cl)cc4)C3=O)o2)cc1Cl`: the concentration at half-maximal activity (AC50) by setting is: under setting [1], 5.01 µM [falling, single point]; under setting [2], 2.82 µM [falling, partial curve, poor fit].
Regarding `COc1ccc(CCNC(=O)Cc2ccc(OCc3ccccc3)c(OC)c2[N+](=O)[O-])cc1OCc1ccccc1`, the AC50 under setting [2] was 11.2 µM [rising, partial curve].
Still for that read-out and setting: then `CCN(CC)C(=O)c1sc2c(c1C)c(=O)n(CCc1ccccc1)c(=O)n2Cc1ccc(C)cc1`, with 31.6 µM [rising, single point]; and `CCOc1cc2c(cc1OCC)C(CC(=O)OC)N(C(=O)Nc1cc(OC)ccc1OC)CC2` (stereo not given), with 2.51 µM [falling, partial curve, poor fit].
Regarding `CCOC(=O)c1ccc(N)cc1`, the AC50 was 8.91 µM [rising, single point] under setting [1] and 7.94 µM [rising, partial curve, poor fit] under setting [2].
With `CCOc1ccccc1CN1CCN(C2CCSCC2)CC1CCO` (stereo not given), the half-maximal activity concentration (AC50) reads like this: under setting [1], 10 µM [rising, partial curve, poor fit]; under setting [2], 20 µM [rising, partial curve, poor fit].
Turning to `COC(=O)c1ccc(N=Cc2c(C(F)(F)F)[nH]n(C)c2=O)cc1`, under setting [2], the AC50 is 0.794 µM [falling, partial curve, poor fit].
With `Oc1ccc(Cn2ccnc2)c2cccnc12`, the concentration at half-maximal activity (AC50) is 6.31 µM [falling, partial curve] under setting [1] and 11.2 µM [falling, partial curve] under setting [2].
As for `COc1ccccc1Nc1nc(-c2ccccc2)nc2ccccc12`, the AC50 was 0.2 µM [rising, full curve, poor fit] under setting [1] and 5.62 µM [rising, partial curve, poor fit] under setting [2].
`NC(=O)c1cc[n+](CC2=C(C(=O)O)N3C(=O)[C@@H](NC(=O)[C@H](c4ccccc4)S(=O)(=O)[O-])[C@@H]3SC2)cc1`: the concentration at half-maximal activity (AC50) under setting [2] was 0.631 µM [falling, full curve, poor fit].
`CNCc1cc(Br)c(OCC(=O)Nc2ccccc2OC)c(OC)c1`: the half-maximal activity concentration (AC50) under setting [1] was 35.5 µM [falling, single point].

These data come from PubChem BioAssay AID1487 (National Center for Advancing Translational Sciences (NCATS), 2009).
